According to the supplement of paper PMC10849652:
This is one part of the list.

Protein sequences, listed by entry. Tags and fused reporters are not part of them. Lines headed by an entry give the natural chain unless they say otherwise; changes in a name come on top.
UniProt Q7Z6M1: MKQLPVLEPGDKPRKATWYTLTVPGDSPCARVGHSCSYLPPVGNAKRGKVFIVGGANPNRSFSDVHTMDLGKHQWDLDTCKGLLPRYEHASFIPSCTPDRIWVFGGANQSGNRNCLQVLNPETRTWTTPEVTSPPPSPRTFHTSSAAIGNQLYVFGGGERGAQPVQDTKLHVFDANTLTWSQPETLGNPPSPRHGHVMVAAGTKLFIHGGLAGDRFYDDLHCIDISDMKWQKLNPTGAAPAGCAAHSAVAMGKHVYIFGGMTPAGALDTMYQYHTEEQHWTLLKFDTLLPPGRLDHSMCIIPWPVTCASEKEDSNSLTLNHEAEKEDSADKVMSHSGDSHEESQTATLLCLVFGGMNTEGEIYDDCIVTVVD
UniProt Q96S59, whole entry, looked up: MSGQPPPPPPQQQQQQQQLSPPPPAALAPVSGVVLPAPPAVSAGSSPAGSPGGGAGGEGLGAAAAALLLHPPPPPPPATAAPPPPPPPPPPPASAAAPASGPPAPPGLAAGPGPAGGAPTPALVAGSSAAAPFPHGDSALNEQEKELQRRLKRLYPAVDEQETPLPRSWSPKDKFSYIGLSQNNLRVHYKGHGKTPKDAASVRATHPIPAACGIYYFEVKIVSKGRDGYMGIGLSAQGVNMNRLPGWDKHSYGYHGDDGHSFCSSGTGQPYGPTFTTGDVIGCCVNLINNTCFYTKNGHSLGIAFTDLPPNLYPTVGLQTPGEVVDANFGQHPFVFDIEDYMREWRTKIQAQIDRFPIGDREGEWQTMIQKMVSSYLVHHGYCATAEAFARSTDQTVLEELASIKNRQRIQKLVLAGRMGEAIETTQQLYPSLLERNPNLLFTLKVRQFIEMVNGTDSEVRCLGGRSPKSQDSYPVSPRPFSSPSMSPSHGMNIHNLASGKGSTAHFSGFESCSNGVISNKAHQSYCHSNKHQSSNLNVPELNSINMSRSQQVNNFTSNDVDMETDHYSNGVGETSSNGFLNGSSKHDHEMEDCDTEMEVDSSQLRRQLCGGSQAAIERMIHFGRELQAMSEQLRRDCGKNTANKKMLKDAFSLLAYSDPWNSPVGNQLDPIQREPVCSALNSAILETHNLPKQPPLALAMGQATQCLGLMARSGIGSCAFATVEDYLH
UniProt Q8WUD1: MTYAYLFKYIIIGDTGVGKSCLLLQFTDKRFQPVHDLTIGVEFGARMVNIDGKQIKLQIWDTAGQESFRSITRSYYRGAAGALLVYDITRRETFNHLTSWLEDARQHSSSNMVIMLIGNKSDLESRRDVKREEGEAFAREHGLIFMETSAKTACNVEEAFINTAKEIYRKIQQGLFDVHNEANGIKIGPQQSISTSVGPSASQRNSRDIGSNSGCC
UniProt Q15771: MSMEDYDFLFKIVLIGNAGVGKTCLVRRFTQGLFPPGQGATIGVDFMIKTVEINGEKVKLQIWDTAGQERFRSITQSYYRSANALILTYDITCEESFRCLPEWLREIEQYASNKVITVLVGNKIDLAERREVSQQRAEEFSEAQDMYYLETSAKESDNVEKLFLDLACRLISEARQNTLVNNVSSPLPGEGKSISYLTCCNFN
UniProt P06737: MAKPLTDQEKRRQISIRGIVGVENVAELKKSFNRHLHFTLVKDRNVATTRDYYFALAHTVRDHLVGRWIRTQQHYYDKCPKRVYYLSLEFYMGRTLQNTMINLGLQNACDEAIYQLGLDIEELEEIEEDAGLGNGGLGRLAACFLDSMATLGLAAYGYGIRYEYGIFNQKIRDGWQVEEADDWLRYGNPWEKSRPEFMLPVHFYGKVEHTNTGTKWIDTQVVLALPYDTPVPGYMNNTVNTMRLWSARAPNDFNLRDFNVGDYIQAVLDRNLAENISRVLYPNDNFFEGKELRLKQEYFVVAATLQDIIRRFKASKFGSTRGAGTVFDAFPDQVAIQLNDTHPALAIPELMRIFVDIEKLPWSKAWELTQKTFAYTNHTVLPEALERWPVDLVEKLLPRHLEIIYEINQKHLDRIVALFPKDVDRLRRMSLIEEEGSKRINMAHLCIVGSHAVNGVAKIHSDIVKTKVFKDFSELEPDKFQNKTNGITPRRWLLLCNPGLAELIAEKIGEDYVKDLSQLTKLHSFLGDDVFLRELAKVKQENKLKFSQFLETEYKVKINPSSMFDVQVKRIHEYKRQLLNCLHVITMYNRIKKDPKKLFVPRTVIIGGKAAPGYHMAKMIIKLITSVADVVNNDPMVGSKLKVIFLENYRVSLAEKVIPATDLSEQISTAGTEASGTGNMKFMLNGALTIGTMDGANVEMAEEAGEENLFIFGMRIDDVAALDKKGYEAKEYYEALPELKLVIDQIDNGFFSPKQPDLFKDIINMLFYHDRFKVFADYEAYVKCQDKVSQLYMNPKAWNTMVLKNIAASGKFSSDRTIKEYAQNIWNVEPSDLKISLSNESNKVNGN
UniProt Q9Y3L5: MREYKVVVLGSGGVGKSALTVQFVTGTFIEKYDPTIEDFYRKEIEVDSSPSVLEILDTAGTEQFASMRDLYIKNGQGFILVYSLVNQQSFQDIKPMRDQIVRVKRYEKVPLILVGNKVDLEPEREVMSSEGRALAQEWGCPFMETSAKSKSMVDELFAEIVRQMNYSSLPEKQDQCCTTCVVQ
UniProt Q9ULZ3, whole entry, looked up: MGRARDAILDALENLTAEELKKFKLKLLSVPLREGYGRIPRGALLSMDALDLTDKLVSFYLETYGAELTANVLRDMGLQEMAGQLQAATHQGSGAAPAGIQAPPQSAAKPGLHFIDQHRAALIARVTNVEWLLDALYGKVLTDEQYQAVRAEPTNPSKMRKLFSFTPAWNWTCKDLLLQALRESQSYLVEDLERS
UniProt Q9H6Z4: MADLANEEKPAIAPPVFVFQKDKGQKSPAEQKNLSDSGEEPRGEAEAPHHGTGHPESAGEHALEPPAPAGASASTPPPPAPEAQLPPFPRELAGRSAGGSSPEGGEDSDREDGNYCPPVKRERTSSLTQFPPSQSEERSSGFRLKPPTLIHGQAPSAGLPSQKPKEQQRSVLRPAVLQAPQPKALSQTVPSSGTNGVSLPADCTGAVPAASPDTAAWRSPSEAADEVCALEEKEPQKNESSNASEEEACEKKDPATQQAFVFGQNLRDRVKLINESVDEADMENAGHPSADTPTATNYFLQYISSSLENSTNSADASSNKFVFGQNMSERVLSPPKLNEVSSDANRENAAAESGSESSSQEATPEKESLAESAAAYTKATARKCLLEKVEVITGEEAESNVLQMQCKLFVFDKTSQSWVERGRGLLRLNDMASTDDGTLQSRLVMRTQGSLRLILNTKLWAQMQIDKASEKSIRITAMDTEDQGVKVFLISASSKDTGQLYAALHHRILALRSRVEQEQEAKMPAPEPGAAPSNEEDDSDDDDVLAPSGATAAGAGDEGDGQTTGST
UniProt Q9NS91, whole entry, looked up: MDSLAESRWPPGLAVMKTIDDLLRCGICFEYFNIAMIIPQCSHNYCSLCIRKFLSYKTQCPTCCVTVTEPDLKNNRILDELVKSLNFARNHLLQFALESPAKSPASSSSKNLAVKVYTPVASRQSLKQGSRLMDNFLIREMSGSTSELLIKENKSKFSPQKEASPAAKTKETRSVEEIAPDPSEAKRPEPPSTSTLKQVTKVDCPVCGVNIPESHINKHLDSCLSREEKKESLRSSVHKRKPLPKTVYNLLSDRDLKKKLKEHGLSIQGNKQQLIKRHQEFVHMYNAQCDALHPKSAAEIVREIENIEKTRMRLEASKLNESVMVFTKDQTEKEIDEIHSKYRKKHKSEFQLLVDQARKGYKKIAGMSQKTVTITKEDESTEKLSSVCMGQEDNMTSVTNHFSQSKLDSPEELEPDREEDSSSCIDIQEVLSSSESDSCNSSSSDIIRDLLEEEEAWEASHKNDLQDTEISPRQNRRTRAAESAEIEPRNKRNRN
UniProt P61106, whole entry, looked up: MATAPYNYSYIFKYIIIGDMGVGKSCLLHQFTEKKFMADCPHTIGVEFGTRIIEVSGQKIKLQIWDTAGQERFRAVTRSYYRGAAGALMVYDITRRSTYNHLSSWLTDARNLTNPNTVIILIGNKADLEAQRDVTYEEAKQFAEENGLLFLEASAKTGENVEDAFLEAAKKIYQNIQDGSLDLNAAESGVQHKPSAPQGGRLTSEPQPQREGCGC
UniProt O43502: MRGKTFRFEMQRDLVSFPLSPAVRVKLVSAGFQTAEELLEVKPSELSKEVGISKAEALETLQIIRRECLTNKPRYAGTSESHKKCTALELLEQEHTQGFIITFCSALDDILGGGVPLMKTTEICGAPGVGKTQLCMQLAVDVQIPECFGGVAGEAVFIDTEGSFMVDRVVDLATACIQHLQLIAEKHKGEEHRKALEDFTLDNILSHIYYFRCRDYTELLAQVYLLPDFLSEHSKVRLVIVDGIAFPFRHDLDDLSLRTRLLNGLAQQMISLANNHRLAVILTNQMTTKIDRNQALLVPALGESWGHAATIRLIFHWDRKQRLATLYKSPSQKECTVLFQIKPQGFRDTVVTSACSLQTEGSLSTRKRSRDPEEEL
UniProt Q06609, whole entry, looked up: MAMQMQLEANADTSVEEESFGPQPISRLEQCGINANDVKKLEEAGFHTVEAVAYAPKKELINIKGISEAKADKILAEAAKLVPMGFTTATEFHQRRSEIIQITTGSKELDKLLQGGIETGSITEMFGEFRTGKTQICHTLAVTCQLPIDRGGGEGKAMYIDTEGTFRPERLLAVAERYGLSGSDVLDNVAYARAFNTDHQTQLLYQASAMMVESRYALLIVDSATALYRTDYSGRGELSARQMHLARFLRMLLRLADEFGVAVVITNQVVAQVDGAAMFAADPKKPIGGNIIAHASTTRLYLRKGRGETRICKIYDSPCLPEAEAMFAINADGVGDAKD
UniProt P47897: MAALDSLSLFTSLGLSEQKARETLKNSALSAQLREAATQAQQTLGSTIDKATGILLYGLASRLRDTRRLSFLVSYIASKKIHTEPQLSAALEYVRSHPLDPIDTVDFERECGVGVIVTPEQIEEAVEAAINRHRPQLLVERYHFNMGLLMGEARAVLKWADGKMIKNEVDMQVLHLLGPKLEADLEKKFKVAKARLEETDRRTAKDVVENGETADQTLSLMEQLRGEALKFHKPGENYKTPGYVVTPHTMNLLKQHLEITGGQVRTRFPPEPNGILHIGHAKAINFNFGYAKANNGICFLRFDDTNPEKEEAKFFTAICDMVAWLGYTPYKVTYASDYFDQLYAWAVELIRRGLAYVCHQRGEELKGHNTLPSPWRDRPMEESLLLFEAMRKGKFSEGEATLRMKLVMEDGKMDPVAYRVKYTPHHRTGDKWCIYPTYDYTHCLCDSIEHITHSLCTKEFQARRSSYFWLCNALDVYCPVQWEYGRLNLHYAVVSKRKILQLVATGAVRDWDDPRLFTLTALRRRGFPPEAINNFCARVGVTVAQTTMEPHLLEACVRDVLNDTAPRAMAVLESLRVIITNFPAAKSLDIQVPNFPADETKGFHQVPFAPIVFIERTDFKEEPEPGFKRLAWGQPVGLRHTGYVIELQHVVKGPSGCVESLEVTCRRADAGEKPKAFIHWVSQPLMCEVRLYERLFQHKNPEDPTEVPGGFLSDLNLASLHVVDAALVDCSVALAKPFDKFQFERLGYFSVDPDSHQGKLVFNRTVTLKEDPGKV
UniProt Q9P0K7: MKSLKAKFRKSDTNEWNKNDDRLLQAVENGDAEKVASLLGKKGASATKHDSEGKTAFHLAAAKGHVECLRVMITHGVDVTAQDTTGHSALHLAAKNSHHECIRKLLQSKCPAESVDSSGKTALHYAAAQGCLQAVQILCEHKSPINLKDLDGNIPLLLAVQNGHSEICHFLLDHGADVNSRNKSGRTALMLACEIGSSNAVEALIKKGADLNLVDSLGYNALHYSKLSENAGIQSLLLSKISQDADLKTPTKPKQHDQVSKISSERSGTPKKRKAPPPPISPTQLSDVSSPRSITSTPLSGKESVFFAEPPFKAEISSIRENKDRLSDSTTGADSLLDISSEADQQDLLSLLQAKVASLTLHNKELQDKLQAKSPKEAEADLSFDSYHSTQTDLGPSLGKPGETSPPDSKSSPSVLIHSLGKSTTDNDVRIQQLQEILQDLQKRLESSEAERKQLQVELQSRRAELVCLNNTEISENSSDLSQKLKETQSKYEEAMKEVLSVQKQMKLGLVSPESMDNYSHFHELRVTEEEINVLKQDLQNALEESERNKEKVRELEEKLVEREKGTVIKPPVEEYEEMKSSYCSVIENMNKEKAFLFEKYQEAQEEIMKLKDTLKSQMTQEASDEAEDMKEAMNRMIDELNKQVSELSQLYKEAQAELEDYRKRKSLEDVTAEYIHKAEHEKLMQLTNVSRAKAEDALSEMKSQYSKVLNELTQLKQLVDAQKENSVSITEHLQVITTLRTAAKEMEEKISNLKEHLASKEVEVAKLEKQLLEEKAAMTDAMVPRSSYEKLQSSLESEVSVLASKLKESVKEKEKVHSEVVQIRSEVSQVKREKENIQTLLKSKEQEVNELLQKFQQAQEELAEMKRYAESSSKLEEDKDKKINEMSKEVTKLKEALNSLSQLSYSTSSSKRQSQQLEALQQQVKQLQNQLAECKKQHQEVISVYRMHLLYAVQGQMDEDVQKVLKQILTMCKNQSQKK

Compound: CC1=C2C(=CC=C1)N=C(N(C2=O)C3=CC=CC=C3C)CN4C=NC5=C(N=CN=C54)N
Test: log2 fold change, soluble protein after heating vs DMSO (PISA); higher = thermal stabilisation; K562 lysate, 10 uM; active = over 0.2 and 3.5 SD of the protein, either way, in both replicates (recomputed)
Procedure, shortened: (§1)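 To prepare the extract, K562 pellets were dounce-homogenised in PBS pH 7.4 with 1 mM MgCl2, giving crude material at 1 mg/mL protein. This was treated with 10 μM compound for 30 min, then heated in aliquots for 3 min over 48°C-58°C before pooling and addition of NP-40 to 0.5% at 4°C. Centrifugation at 21,000xg for 90 min left soluble protein in the supernatant, which TMTpro 16plex LC-MS/MS quantified with equalised channel sums. Results are log-two fold changes in thermal stability compared with solvent controls, from duplicates.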

Row | Target | log2 fold change
1 | RABEPK (UniProt Q7Z6M1) | inactive: 0.026
2 | RAC1 isoform 2 (UniProt P63000) | inactive: -0.037
3 | RANBP9 (UniProt Q96S59) | inactive: 0.027
4 | RABGGTA (UniProt Q92696) | inactive: 0.02
5 | RAB2B (UniProt Q8WUD1) | inactive: 0.023
6 | QKI (UniProt Q96PU8) | inactive: -0.023
7 | RAB30 (UniProt Q15771) | inactive: 0.067
8 | RAD9A (UniProt Q99638) | inactive: -0.007
9 | RAB10 (UniProt P61026) | inactive: 0.027
10 | RABGGTB (UniProt P53611) | inactive: 0.005
11 | RABGEF1 isoform 3 (UniProt Q9UJ41) | inactive: 0.005
12 | RABGAP1L isoform 5 (UniProt Q5R372) | inactive: -0.127
13 | RAE1 (UniProt P78406) | inactive: -0.005
14 | RAB20 (UniProt Q9NX57) | inactive: 0.07
15 | RALGAPA1 isoform 6 (UniProt Q6GYQ0) | inactive: 0.006
16 | RAB9A (UniProt P51151) | inactive: 0.041
17 | RAD23B (UniProt P54727) | inactive: -0.001
18 | PYGL (UniProt P06737) | inactive: 0.008
19 | RAP2C (UniProt Q9Y3L5) | inactive: 0.011
20 | PYCARD (UniProt Q9ULZ3) | inactive: 0.006

Row | Target | log2 fold change
21 | RAB7A (UniProt P51149) | inactive: 0.03
22 | QPRT (UniProt Q15274) | inactive: 0.036
23 | RAC2 (UniProt P15153) | inactive: -0.032
24 | RANBP3 isoform 2 (UniProt Q9H6Z4) | inactive: 0.113
25 | RABIF (UniProt P47224) | inactive: 0.021
26 | RAB11FIP4 (UniProt Q86YS3) | inactive: -0.011
27 | PYCR1 (UniProt J3QKT4) | inactive: 0.01
28 | RAP1B (UniProt F5GZG1) | inactive: 0.023
29 | RAD18 (UniProt Q9NS91) | inactive: 0.002
30 | RAB14 (UniProt P61106) | inactive: 0.013
31 | RALBP1 (UniProt Q15311) | inactive: 0.047
32 | RAD51C (UniProt O43502) | inactive: 0.078
33 | RACGAP1 (UniProt Q9H0H5) | inactive: 0.066
34 | RALGAPB (UniProt Q86X10) | inactive: 0.085
35 | RABAC1 (UniProt Q9UI14) | inactive: 0.049
36 | RACK1 (UniProt D6RF23) | inactive: -0.021
37 | RAD51 (UniProt Q06609) | inactive: -0.032
38 | QARS (UniProt P47897) | inactive: 0.012
39 | RAI14 isoform 2 (UniProt Q9P0K7) | inactive: -0.02
40 | RAN (UniProt P62826) | inactive: -0.039

Compound: Cc1sc2c(c1C)C(c1ccc(Cl)cc1)=N[C@@H](CC(=O)OC(C)(C)C)c1nnc(C)n1-2
Test: as above
Procedure, shortened: as §1

Row | Target | log2 fold change
41 | RABEPK (UniProt Q7Z6M1) | inactive: 0.017
42 | RAC1 isoform 2 (UniProt P63000) | inactive: 0.082
43 | RANBP9 (UniProt Q96S59) | inactive: -0.024
44 | RABGGTA (UniProt Q92696) | inactive: -0.018
45 | RAB2B (UniProt Q8WUD1) | inactive: 0.034
46 | QKI (UniProt Q96PU8) | inactive: 0.04
47 | RAB30 (UniProt Q15771) | inactive: -0.008
48 | RAD9A (UniProt Q99638) | inactive: -0.027
49 | RAB10 (UniProt P61026) | inactive: 0.041
50 | RABGGTB (UniProt P53611) | inactive: -0.048
51 | RABGEF1 isoform 3 (UniProt Q9UJ41) | inactive: -0.035
52 | RABGAP1L isoform 5 (UniProt Q5R372) | inactive: -0.06
53 | RAE1 (UniProt P78406) | inactive: 0.07
54 | RAB20 (UniProt Q9NX57) | inactive: -0.097
55 | RALGAPA1 isoform 6 (UniProt Q6GYQ0) | inactive: -0.063
56 | RAB9A (UniProt P51151) | inactive: 0.028
57 | RAD23B (UniProt P54727) | inactive: -0.068
58 | PYGL (UniProt P06737) | inactive: -0.008
59 | RAP2C (UniProt Q9Y3L5) | inactive: -0.119
60 | PYCARD (UniProt Q9ULZ3) | inactive: 0.008

Row | Target | log2 fold change
61 | RAB7A (UniProt P51149) | inactive: -0.001
62 | QPRT (UniProt Q15274) | inactive: -0.017
63 | RAC2 (UniProt P15153) | inactive: 0.067
64 | RANBP3 isoform 2 (UniProt Q9H6Z4) | inactive: -0.04
65 | RABIF (UniProt P47224) | inactive: -0.035
66 | RAB11FIP4 (UniProt Q86YS3) | inactive: -0.063
67 | PYCR1 (UniProt J3QKT4) | inactive: -0.152
68 | RAP1B (UniProt F5GZG1) | inactive: -0.019
69 | RAD18 (UniProt Q9NS91) | inactive: 0.002
70 | RAB14 (UniProt P61106) | inactive: 0.046
71 | RALBP1 (UniProt Q15311) | inactive: -0.051
72 | RAD51C (UniProt O43502) | inactive: -0.029
73 | RACGAP1 (UniProt Q9H0H5) | inactive: 0.003
74 | RALGAPB (UniProt Q86X10) | inactive: -0.026
75 | RABAC1 (UniProt Q9UI14) | inactive: -0.018
76 | RAD51 (UniProt Q06609) | inactive: 0.022
77 | QARS (UniProt P47897) | inactive: 0.067
78 | RAI14 isoform 2 (UniProt Q9P0K7) | inactive: -0.041
79 | RAN (UniProt P62826) | inactive: -0.007
